Data from patent US20180328927A1 (HUNAN SKYWORLD BIOTECHNOLOGIES CO., priority 2015, published 2018).
Where “and” joins values, the source holds several entries; their conditions need not be identical. Identical values can stand only once.

Test system: HRP-anti-SAM 84-3
Experiment: SAMe standard curve, competitive ELISA on BSA-SAMe coated plate
Details: duplicates

C[S+](CC[C@H](N)C(=O)[O-])C[C@H]1O[C@@H](n2cnc3c(N)ncnc32)[C@H](O)[C@@H]1O (stereo partly shown) [SAMe, S-adenosylmethionine]
OD450 (SAMe) (SAMe 0.3125 uM): 1.0548 and 0.9196
OD450 (SAMe) (SAMe 0.625 uM): 0.9742 and 0.9250
OD450 (SAMe) (SAMe 1.25 uM): 0.7431 and 0.7396
OD450 (SAMe) (SAMe 2.5 uM): 0.4976 and 0.4788
OD450 (SAMe) (SAMe 5 uM): 0.2461 and 0.2307
OD450 (SAMe) (SAMe 10 uM): 0.1389 and 0.1343
OD450 (SAMe) (SAMe 20 uM): 0.1407 and 0.1447
